# PubChem BioAssay AID743448, Peter MacCallum Cancer Centre | 2014
# Screen: 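Test whether knock-downs sensitising to vorinostat hold across several colon lines but not etoposide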 (follow-up of hits)
# Cells: four human colon cancer cell lines: HCT116-VR (vorinostat-resistant HCT116 derivative), SW480, SW620 and LIM1215
# Reagent: siRNA pool against human genes, 40 nM siRNA pool
# Duration: drug added two days after transfection, read one day later
# Challenge: vorinostat 2.5 µM on one half of each plate, etoposide 5 µM on the other half
# Cell line and drug panel: SW480 cells with etoposide
# Read-out: 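Caspase 3/7 activity by luminescence and live-cell viability by fluorescence, each given as a ratio to mock-transfected wells and as a robust z-score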
# Reading the numbers: caspase ratio to mock: higher = more caspase activity than mock; viability ratio to mock: higher = more live cells than mock; caspase robust z-score: higher = more caspase activity, more apoptosis; viability robust z-score: higher = more live cells
# Hit rule: 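Hit means caspase ratio to mock at least 1.6, or viability ratio to mock at most 0.75; wells with strong death in the absence of drug get no call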
# Calls: active = caspase or viability hit in this panel; inactive = no change, or unhealthy well
# Shown is a random part of the 106 reagents, under one of the conditions tested. 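Calls are per line and drug panel including etoposide, not vorinostat-specific; gene picks needed hits in two or more extra lines with vorinostat versus etoposide.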
Target gene,caspase ratio to mock,viability ratio to mock,caspase robust z-score,viability robust z-score,call
SEMA4F,1.64,0.96,-0.32,0.58,active
OSBPL6,1.71,1.01,-0.24,0.92,active
C1orf52,1.42,0.78,-0.5,-0.56,inactive
CBX7,3.78,0.82,1.35,-0.28,active
LCE2A,5.91,0.77,2.9,-0.57,inactive
GNG8,4.23,0.78,1.7,-0.59,active
NUP58,1.26,0.76,-0.58,-0.74,inactive
NUP62,3.1,0.76,0.76,-0.74,active
MSANTD1,3.04,0.64,0.74,-1.52,active
RNF186,0.63,1.11,-1.09,1.64,inactive
C22orf15,2.05,1.01,0.02,0.97,active
LBHD1,1.82,0.96,-0.18,0.62,active
POLR2D,5.87,0.77,2.98,-0.63,active
EIF1AX,1.01,0.61,-0.8,-1.73,active
EIF3I,3.16,0.58,0.82,-1.9,active
TFAP2D,3.04,1.13,0.74,1.73,active
VPS4A,4.51,0.68,1.89,-1.25,inactive
NPEPPS,1.25,0.72,-0.61,-1.02,active
BDP1,1.36,0.9,-0.52,0.24,inactive
CAPN12,1.38,0.7,-0.55,-1.17,inactive

A few values from the entries so far.
LCE2A, call: inactive
Value of SEMA4F in “call”: active
